This is an account of results in publication PMC7592556.

Chains of the proteins cited; added tags and fusions are not shown. Lines headed by an entry give the natural chain unless they say otherwise; changes in a name come on top. Residues count along the entry.
UniProt Q9JLU4: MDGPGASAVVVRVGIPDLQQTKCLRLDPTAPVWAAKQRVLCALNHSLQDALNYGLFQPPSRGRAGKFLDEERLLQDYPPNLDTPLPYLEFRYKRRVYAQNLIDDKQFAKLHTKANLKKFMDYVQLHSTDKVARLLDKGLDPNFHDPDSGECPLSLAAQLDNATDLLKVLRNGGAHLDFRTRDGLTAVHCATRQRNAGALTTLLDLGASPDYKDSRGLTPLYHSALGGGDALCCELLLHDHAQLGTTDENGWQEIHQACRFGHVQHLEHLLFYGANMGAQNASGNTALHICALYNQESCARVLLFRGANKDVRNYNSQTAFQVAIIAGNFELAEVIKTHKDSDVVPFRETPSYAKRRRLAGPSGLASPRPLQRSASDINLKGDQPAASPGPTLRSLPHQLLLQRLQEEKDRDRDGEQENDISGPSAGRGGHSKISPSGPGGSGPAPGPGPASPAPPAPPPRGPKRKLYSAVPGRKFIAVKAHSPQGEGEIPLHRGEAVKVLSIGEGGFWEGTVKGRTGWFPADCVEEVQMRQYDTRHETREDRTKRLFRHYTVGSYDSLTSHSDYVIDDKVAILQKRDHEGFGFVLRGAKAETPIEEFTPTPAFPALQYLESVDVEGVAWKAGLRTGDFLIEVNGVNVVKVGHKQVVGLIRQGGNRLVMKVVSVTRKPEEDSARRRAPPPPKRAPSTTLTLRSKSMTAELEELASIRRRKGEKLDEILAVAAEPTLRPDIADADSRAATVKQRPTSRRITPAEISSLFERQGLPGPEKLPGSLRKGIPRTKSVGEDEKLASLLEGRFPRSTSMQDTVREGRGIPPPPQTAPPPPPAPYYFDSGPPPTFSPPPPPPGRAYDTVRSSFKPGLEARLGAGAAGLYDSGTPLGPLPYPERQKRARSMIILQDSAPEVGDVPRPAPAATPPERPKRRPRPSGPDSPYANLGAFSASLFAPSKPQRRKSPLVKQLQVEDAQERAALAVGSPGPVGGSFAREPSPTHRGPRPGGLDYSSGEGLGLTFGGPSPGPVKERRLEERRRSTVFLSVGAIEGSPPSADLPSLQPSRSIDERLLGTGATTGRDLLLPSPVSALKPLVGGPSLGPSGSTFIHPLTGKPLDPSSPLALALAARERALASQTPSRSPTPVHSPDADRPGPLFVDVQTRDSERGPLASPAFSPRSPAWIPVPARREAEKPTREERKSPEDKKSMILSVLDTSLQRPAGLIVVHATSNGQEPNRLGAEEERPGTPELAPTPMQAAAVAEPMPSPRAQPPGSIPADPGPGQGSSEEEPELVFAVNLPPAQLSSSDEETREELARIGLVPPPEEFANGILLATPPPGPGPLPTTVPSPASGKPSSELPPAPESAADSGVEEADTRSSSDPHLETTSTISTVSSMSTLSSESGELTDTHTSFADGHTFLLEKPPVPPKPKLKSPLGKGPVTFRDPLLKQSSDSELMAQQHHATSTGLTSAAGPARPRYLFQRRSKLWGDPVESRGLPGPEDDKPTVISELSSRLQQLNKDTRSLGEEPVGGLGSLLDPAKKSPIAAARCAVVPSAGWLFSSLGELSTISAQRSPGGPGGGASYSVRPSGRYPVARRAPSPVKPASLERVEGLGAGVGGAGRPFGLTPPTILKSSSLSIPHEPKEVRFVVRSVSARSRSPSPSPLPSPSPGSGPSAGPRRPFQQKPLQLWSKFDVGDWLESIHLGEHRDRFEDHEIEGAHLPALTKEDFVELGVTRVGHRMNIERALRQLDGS
His6-SUMO fusion protein of the complete Shank3 N-terminus (SPN-Ank, residues 1-348): residues 1-348 of Q9JLU4
His6-SUMO fusion protein of the Shank3 Ank repeats (residues 99-348): residues 99-348 of Q9JLU4
UniProt Q02248: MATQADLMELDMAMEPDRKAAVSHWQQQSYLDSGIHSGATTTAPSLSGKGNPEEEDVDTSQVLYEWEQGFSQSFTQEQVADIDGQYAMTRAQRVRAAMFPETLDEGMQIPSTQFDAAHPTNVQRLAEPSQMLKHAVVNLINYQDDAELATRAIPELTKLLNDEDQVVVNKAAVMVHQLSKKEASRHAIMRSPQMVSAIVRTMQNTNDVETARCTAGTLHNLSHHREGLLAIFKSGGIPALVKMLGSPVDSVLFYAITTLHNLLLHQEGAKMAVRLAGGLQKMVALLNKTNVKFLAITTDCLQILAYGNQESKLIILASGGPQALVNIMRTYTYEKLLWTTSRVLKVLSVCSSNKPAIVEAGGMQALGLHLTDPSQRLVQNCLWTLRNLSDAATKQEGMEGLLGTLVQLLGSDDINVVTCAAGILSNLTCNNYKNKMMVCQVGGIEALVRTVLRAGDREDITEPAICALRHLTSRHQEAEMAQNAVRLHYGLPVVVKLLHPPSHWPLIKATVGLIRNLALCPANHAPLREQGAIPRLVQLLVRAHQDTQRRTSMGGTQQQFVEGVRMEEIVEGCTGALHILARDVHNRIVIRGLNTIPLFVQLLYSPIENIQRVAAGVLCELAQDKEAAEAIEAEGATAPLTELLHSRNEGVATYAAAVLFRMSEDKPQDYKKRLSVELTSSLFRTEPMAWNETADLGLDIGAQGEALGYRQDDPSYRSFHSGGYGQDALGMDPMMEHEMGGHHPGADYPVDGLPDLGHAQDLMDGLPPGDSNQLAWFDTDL
UniProt O88704: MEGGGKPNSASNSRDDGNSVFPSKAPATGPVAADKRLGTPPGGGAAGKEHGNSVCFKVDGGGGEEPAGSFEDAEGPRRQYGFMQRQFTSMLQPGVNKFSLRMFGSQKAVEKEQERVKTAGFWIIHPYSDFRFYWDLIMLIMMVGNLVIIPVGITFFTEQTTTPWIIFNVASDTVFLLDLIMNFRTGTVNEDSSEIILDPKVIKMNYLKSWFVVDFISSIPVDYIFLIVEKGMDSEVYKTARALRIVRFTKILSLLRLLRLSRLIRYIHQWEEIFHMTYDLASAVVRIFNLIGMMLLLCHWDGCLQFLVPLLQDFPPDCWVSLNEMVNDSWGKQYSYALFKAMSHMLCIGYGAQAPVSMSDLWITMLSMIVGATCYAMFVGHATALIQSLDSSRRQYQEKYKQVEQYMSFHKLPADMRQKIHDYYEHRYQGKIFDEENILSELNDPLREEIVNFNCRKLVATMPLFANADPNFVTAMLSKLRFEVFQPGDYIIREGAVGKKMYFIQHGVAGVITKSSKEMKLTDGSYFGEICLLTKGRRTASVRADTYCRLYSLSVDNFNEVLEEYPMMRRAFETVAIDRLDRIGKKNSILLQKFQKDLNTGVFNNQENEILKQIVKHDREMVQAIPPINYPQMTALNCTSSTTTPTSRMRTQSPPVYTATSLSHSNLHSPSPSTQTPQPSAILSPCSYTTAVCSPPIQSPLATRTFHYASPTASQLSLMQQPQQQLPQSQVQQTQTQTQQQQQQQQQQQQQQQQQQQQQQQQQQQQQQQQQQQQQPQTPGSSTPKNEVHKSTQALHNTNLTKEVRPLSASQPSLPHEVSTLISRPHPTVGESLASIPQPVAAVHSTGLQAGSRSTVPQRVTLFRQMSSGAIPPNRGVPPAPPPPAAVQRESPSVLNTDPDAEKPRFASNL

No constants are given. Whether binding was seen depends on the method and setting. Binding seen in cells or lysates may run through a third protein. Some binding calls cover weakened binding; strength is not graded here.

Experiment [1] deals with RFP-tagged full-length Shank3 (rat) (UniProt Q9JLU4). As to the kind of experiment: co-IP; 293T cells coexpressing RFP-tagged Shank3 constructs with GFP-/Emerald-tagged catenins; RFP-trap beads; IP buffer (50 mM Tris pH 8, 120 mM NaCl, 0.5% NP40, 1 mM EDTA); Western blot.
The target of experiment [2] is His6-SUMO fusion protein of the Shank3 Ank repeats (residues 99-348) (rat) (UniProt Q9JLU4). As to the kind of experiment: pull-down; immobilized His6-SUMO fusion proteins of Shank3 (SPN-Ank or Ank repeats alone; SUMO control) incubated with lysates of 293T cells expressing GFP-tagged proteins; Western blot; only the target purified. A general note: A western blot detects proteins with antibodies after separation by electrophoresis.

Experiment [3] deals with His6-SUMO fusion protein of the complete Shank3 N-terminus (SPN-Ank, residues 1-348) (rat) (UniProt Q9JLU4). Described as above.
The target in experiment [4] is RFP-tagged full-length Shank3 (rat) (UniProt Q9JLU4). As to the kind of experiment: co-IP; HCN1 and full-length Shank3 in transfected cells; precipitating matrix not told (Additional file 1: Fig. S2).

As for “Emerald-β-catenin (from UniProt Q02248 1-781)”, the figures for the binding result in experiment [1], in experiment [2] and in experiment [3] were “binds”, “no binding” and “no binding”, respectively.
With “EGFP-tagged HCN1 (from UniProt O88704 1-910)”, the binding entry in experiment [4], in experiment [2] and in experiment [3] was “no binding” in each case.
